Measured data: PubChem BioAssay AID493246 (Drosophila RNAi Screening Center, 2011)
The screen tested about 21,000 reagents; this is an unselected part of those with a known target gene and a result. Of all reagents, 429 (2%) got an active call. 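Values are raw and not normalised between plates; calls rest on per-plate z-scores that were not deposited.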 Names joined by + are all predicted targets of the reagent. Not stated in the record: the amount of reagent, the time to read-out.

Aim: 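Genes fly cells need to grow and stay alive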 (primary screen)
Cell system: Drosophila Kc and S2R+ cells
Knock-down reagent: long dsRNA against Drosophila genes
Detection: 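Raw, unnormalised count of remaining cells in each well; per-plate z-scores of cell number underlie the calls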
Direction: Kc cell number and S2R+ cell number: higher = more cells remaining
Rule for the call: 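Counted as a hit if cell number falls by a z-score of at least 3 within its plate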

{"Gene": "CG10073", "Kc cell number, rep 1": 1.46e6, "Kc cell number, rep 2": 1.51e6, "S2R+ cell number, rep 1": 1.08e6, "S2R+ cell number, rep 2": 1.15e6, "Call": "inactive"}
{"Gene": "Sk1", "Kc cell number, rep 1": 1.56e6, "Kc cell number, rep 2": 1.52e6, "S2R+ cell number, rep 1": 9.46e5, "S2R+ cell number, rep 2": 9.91e5, "Call": "inactive"}
{"Gene": "CG12107", "Kc cell number, rep 1": 1.06e6, "Kc cell number, rep 2": 1.19e6, "S2R+ cell number, rep 1": 7.68e5, "S2R+ cell number, rep 2": 6.76e5, "Call": "inactive"}
{"Gene": "Oatp33Eb", "Kc cell number, rep 1": 1.67e6, "Kc cell number, rep 2": 1.69e6, "S2R+ cell number, rep 1": 1.37e6, "S2R+ cell number, rep 2": 1.48e6, "Call": "inactive"}
{"Gene": "Ptpa", "Kc cell number, rep 1": 1.38e6, "Kc cell number, rep 2": 1.37e6, "S2R+ cell number, rep 1": 1.09e6, "S2R+ cell number, rep 2": 1.06e6, "Call": "inactive"}
{"Gene": "KaiR1D", "Kc cell number, rep 1": 1.25e6, "Kc cell number, rep 2": 1.26e6, "S2R+ cell number, rep 1": 1.12e6, "S2R+ cell number, rep 2": 1.19e6, "Call": "inactive"}
{"Gene": "aly", "Kc cell number, rep 1": 1.44e6, "Kc cell number, rep 2": 1.35e6, "S2R+ cell number, rep 1": 1.17e6, "S2R+ cell number, rep 2": 1.35e6, "Call": "inactive"}
{"Gene": "mRpL14", "Kc cell number, rep 1": 1.38e6, "Kc cell number, rep 2": 1.39e6, "S2R+ cell number, rep 1": 8.97e5, "S2R+ cell number, rep 2": 1.02e6, "Call": "inactive"}
{"Gene": "Ssadh", "Kc cell number, rep 1": 5.16e5, "S2R+ cell number, rep 1": 7.61e5, "Call": "inactive"}
{"Gene": "CG13041", "Kc cell number, rep 1": 1.57e6, "Kc cell number, rep 2": 1.58e6, "S2R+ cell number, rep 1": 1.24e6, "S2R+ cell number, rep 2": 1.42e6, "Call": "inactive"}
{"Gene": "brv3", "Kc cell number, rep 1": 1.46e6, "Kc cell number, rep 2": 1.46e6, "S2R+ cell number, rep 1": 9.55e5, "S2R+ cell number, rep 2": 1.05e6, "Call": "inactive"}
{"Gene": "Lsm11", "Kc cell number, rep 1": 1.77e6, "Kc cell number, rep 2": 1.72e6, "S2R+ cell number, rep 1": 1.36e6, "S2R+ cell number, rep 2": 1.52e6, "Call": "inactive"}
{"Gene": "CG14260", "Kc cell number, rep 1": 1.46e6, "Kc cell number, rep 2": 1.47e6, "S2R+ cell number, rep 1": 1.07e6, "S2R+ cell number, rep 2": 1.17e6, "Call": "inactive"}
{"Gene": "CG4074 + CG4186", "Kc cell number, rep 1": 1.36e6, "Kc cell number, rep 2": 1.28e6, "S2R+ cell number, rep 1": 1.29e6, "S2R+ cell number, rep 2": 1.38e6, "Call": "inactive"}
